In US20090297440A1:

B1: C35 peptide T62 to N70 (peptide)
peptide: TGAFEIEIN
B2: C35 peptide N107 to L115 (analog with Ala substituted for Cys at 112) (peptide)
peptide: NSRPPAVIL
B3: C35 peptide E4 to P12 (peptide)
peptide: EPGQTSVAP
B4: C35 peptide G63 to G71 (peptide)
peptide: GAFEIEING
B5: C35 peptide T38 to V46 (peptide)
peptide: TYLELASAV
B6: C35 peptide F65 to L73 (peptide)
peptide: FEIEINGQL
B7: C35 peptide S21 to Y29 (peptide)
peptide: SGVRIVVEY
B8: C35 peptide S9 to V17 (peptide)
peptide: SVAPPPEEV
B9: C35 peptide G61 to I69 (peptide)
peptide: GTGAFEIEI

Each binder was assayed against soluble HLA-B*0702 (human) (assay: fluorescence polarization competition).

Row | binding | Binder
1 | binds | B1
2 | binds | B2
3 | binds | B3
4 | binds | B4

These binders were tested against HLA-A*0201 (human) (assay: fluorescence polarization competition, test peptide at 100 µM).

Row | binding | Binder
5 | binds | B5
6 | binds | B6
7 | binds | B7
8 | binds | B8
9 | binds | B9

No constants are given. Whether binding was seen depends on the method and setting. A result given as binding can be weak or reduced; the word gives no strength.
